Where “and” joins values, the source holds several entries; their conditions need not be identical. Equal entries are not always repeated. Structures can show the parent of a compound that is named as a salt. ± gives the standard deviation of the averaged measurements. Over roughly 1,800 compounds, “GFP- (p16Ink4a-) cell count relative to negative-control wells” has its median near 0.99; the lowest 2% begin near 0.5. Some of the results follow.
system: mouse p16Ink4a+/- lung fibroblasts (INKBRITE, bleomycin-injured); experiment: GFP- (p16Ink4a-) cell count relative to negative-control wells (fold of vehicle); higher = more p16Ink4a- cells surviving; conditions: 1 µM; 3 days

SMILES	GFP-
CCS(=O)(=O)N1CC(CC#N)(n2cc(-c3ncnc4[nH]ccc34)cn2)C1 [Baricitinib]	0.748 ± 0.053
Cc1cccc(C)c1OCC(C)N (configuration not stated) [Mexiletine]	1
COc1cc(F)c(C(C)C)cc1-c1ccc(C(F)(F)F)cc1CN1C(=O)O[C@H](c2cc(C(F)(F)F)cc(C(F)(F)F)c2)[C@@H]1C [Anacetrapib]	1.01
COc1ccc2c(c1)C(=O)N(CCc1ccc(S(=O)(=O)NC(=O)NC3CCCCC3)cc1)C(=O)C2(C)C [Gliquidone]	1.13
O=c1c(O)c(-c2ccc(O)c(O)c2)oc2cc(O)cc(O)c12 [Quercetin]	0.879 and 0.914
CCCc1cc(C)nc(O)c1CNC(=O)c1cc(-c2ccc(N3CCN(C(C)C)CC3)nc2)cc2c1cnn2C(C)C	1.13
CC/C(=C(/CC)c1ccc(O)cc1)c1ccc(O)cc1 [Diethylstilbestrol]	1.13
CC1(C)Cc2c(-c3ccccc3)c(-c3ccc(Cl)cc3)c(CC(=O)O)n2C1 [Licofelone]	0.892
CN(N=O)C(=O)N[C@@H]1[C@@H](O)[C@H](O)[C@@H](CO)O[C@@H]1O [Streptozocin]	1.05
CN(C)CCCN1c2ccccc2CCc2ccc(Cl)cc21 [Clomipramine]	0.94
CC(C)n1cnc2c(NCCc3ccc(O)cc3)nc(-c3csc4ccccc34)nc21 [StemRegenin 1]	1.14
CCC(=O)O[C@]1(C(=O)CCl)[C@@H](C)C[C@H]2[C@@H]3C[C@H](F)C4=CC(=O)C=C[C@]4(C)[C@@]3(F)[C@@H](O)C[C@@]21C [Halobetasol Propionate]	0.951
Cc1cc(C)c(/C=C2\C(=O)Nc3ccccc32)[nH]1 [Semaxanib]	0.862
Cc1cc(C(C)(C)C)c(O)c(C)c1CC1=NCCN1 [Oxymetazoline]	0.98
CC(C)N(CCCNC(=O)Nc1ccc(C(C)(C)C)cc1)C[C@H]1O[C@@H](n2ccc3c(N)ncnc32)[C@H](O)[C@@H]1O	0.969 and 0.875
CN(C)Cc1cccc(/N=C(\c2ccccc2)c2c(O)[nH]c3cc(C(=O)N(C)C)ccc23)c1	0.939
Nc1ncnc2c1c(-c1cccc(OCc3ccccc3)c1)cn2[C@H]1C[C@H](CN2CCCC2)C1	1.03
Clc1ccc(C2(c3ccc(-c4cn[nH]c4)cc3)CCNCC2)cc1	1.25
CC(=O)[C@H]1CC[C@H]2[C@@H]3C=CC4=CC(=O)CC[C@@]4(C)[C@@H]3CC[C@]12C [Dydrogesterone]	1
CO[C@@H]1[C@@H](OC(N)=O)[C@@H](O)[C@H](Oc2ccc3c(O)c(NC(=O)c4ccc(O)c(CC=C(C)C)c4)c(=O)oc3c2C)OC1(C)C [Novobiocin]	0.976
Nc1ncnc2c1c(-c1cccc(OCc3ccccc3)c1)cn2[C@H]1C[C@@H](CN2CCC2)C1	0.882
Nc1nc(CC(=O)Nc2ccc(CCNC[C@H](O)c3ccccc3)cc2)cs1 [Mirabegron]	0.979
COc1ccccc1OCC(O)CO (configuration not stated) [Guaifenesin]	1.01
Cn1cc(C2=C(c3cn(CCCSC(=N)N)c4ccccc34)C(=O)NC2=O)c2ccccc21	0.769
CC(/C=C/C(=O)NO)=C\[C@@H](C)C(=O)c1ccc(N(C)C)cc1 [Trichostatin A]	0.5355 ± 0.0037
CC(C)(C)c1cc(/C=C(\C#N)C(N)=S)cc(C(C)(C)C)c1O [Tyrphostin]	1.12

3 entries already listed, arranged by molar mass, largest number first.
SMILES	GFP-
COc1cc(F)c(C(C)C)cc1-c1ccc(C(F)(F)F)cc1CN1C(=O)O[C@H](c2cc(C(F)(F)F)cc(C(F)(F)F)c2)[C@@H]1C [Anacetrapib]	1.01
CC(/C=C/C(=O)NO)=C\[C@@H](C)C(=O)c1ccc(N(C)C)cc1 [Trichostatin A]	0.5355 ± 0.0037
Cc1cc(C(C)(C)C)c(O)c(C)c1CC1=NCCN1 [Oxymetazoline]	0.98

Next structures:

SMILES	GFP-
Cc1cnc(-c2cc(N3CCN(C(=O)CCS(C)(=O)=O)CC3)ncc2Cl)c(C)c1	0.98
NC(=O)c1cn(Cc2c(F)cccc2F)nn1 [Rufinamide]	1.11
COc1cc(C(=O)NS(=O)(=O)c2ccccc2C)ccc1Cc1cn(C)c2ccc(NC(=O)OC3CCCC3)cc12 [Zafirlukast]	1.04
COC(=O)[C@@H]1[C@H]2C[C@H]3c4[nH]c5ccccc5c4CCN3C[C@@H]2CC[C@@H]1O [Yohimbine]	0.987
COc1ccc(-c2cc3c(C)nc(N)nc3n([C@H]3CC[C@H](OCCO)CC3)c2=O)cn1	0.548
CC(C)OC(=O)C(C(=O)OC(C)C)=C1SC=CS1 [Malotilate]	0.776
CC(C)N(C[C@H]1O[C@@H](n2cnc3c(N)ncnc32)[C@H](O)[C@@H]1O)C1CC(CCc2nc3cc(C(C)(C)C)ccc3[nH]2)C1 (some centres not stated)	0.935 ± 0.06
CCCSc1nc(N[C@@H]2C[C@H]2c2ccc(F)c(F)c2)c2nnn([C@@H]3C[C@H](OCCO)[C@@H](O)[C@H]3O)c2n1 [Ticagrelor]	0.817
C[C@H]1COC2=C1C(=O)C(=O)c1c2ccc2c1CCCC2(C)C [Cryptotanshinone]	0.986
COc1cc(Nc2ncc(F)c(Nc3ccc4c(n3)NC(=O)C(C)(C)O4)n2)cc(OC)c1OC	0.591 and 0.783
COC(=O)[C@H](CCCN=C(N)N)NS(=O)(=O)c1ccc(C)cc1	1.02
c1ccc(-c2nn3c(c2-c2ccnc4cc(OCCN5CCOCC5)ccc24)CCC3)nc1	1.21
CN(C)N=Nc1[nH]cnc1C(N)=O [Dacarbazine]	1.02
Nc1nc2ccc(OC(F)(F)F)cc2s1 [Riluzole]	0.989
O=C(O)c1ccccc1Nc1cccc(C(F)(F)F)c1 [Flufenamic Acid]	1.05
CC(O)C1C(=O)N2C(C(=O)O)=C(SC3CNC(C(=O)N(C)C)C3)C(C)C12 (configuration not stated) [Meropenem]	1.09
OC[C@H]1O[C@H](O[C@]2(CCl)O[C@H](CCl)[C@@H](O)[C@@H]2O)[C@H](O)[C@@H](O)[C@H]1Cl [Sucralose]	1.14
C=CCn1c(=O)c2cnc(Nc3ccc(N4CCN(C)CC4)cc3)nc2n1-c1cccc(C(C)(C)O)n1	0.409
Clc1ccc(CCC(Cn2ccnc2)Sc2c(Cl)cccc2Cl)cc1 (configuration not stated) [Butoconazole]	1.04
Cc1ccc(-c2cc(C(F)(F)F)nn2-c2ccc(S(N)(=O)=O)cc2)cc1 [Celecoxib]	1.1
CS(=O)(=O)N1CCN(Cc2cc3nc(-c4cccc5[nH]ncc45)nc(N4CCOCC4)c3s2)CC1	0.676
CCCNS(=O)(=O)Nc1ncnc(OCCOc2ncc(Br)cn2)c1-c1ccc(Br)cc1 [Macitentan]	0.983
COc1cc2nccc(Oc3ccc(NC(=O)Nc4cc(C)on4)c(Cl)c3)c2cc1OC [Tivozanib]	1.01
Cc1cc(N2CCOCC2)ccc1Nc1nc(NC2CCCCC2)c2[nH]cnc2n1	0.793
C[N+](C)(C)CCO [Choline]	1.17
CCc1c(Cl)c(O)c(Cl)c(O)c1C(=O)O[C@H]1[C@H](O)[C@H](OC)[C@H](OC/C2=C\C=C\C[C@H](O)/C(C)=C\[C@H](CC)[C@@H](O[C@@H]3OC(C)(C)[C@@H](OC(=O)C(C)C)[C@H](O)[C@@H]3O)/C(C)=C\C(C)=C/C[C@@H]([C@@H](C)O)OC2=O)O[C@@H]1C [Fidaxomicin]	1.01

SMILES	GFP-
Cc1ccc(Sc2ccccc2N2CCNCC2)c(C)c1 [Vortioxetine HBr]	1.01
C=C(C)[C@@H]1CC[C@]2(C(=O)O)CC[C@]3(C)[C@H](CC[C@@H]4[C@@]5(C)CC[C@H](O)C(C)(C)[C@@H]5CC[C@]43C)[C@@H]12 [Betulinic acid]	1.01
CNC[C@H](O)c1ccc(O)c(O)c1 [Epinephrine]	0.967 and 1.03 and 1.07
CN1[C@@H]2CC[C@H]1C[C@@H](OC(c1ccccc1)c1ccccc1)C2 [Benzatropine]	0.973
CC(S)C(=O)NCC(=O)O (configuration not stated) [Tiopronin]	1.04
O=C(/C=C\n1cnc(-c2cc(C(F)(F)F)cc(C(F)(F)F)c2)n1)N1CC(F)(F)C1	0.67
CCCCNc1ncc(-c2ccc(CN3CCOCC3)cn2)c(N[C@H]2CC[C@H](O)CC2)n1	0.929
O=C(Nc1ccccc1)c1cc([N+](=O)[O-])ccc1Cl [2-chloro-5-nitro-N-phenylbenzamide]	1.15
O=C(/C=C/c1ccc(O)c(O)c1)OCCc1ccccc1 [Caffeic Acid Phenethyl Ester]	0.991
O=C1Cc2c([nH]c3ccc(Br)cc23)-c2ncccc2N1 [1-Azakenpaullone]	1.09
CN(C)Cc1ccc(-c2nc3cccc4c3n2CCNC4=O)cc1	0.796 ± 0.034
CCOC(=O)c1ccc(C#Cc2ccc3c(c2)C(C)(C)CCS3)nc1 [Tazarotene]	1.05
COc1cc(N2CCC(N(C)C)CC2)ccc1Nc1ncc(Cl)c(Nc2ccccc2P(C)(C)=O)n1	1.08
Cn1cc(-c2ccc3nnc(Sc4ccc5ncccc5c4)n3n2)cn1	0.95
C[C@H]1[C@H](NC(=O)/C(=N\OC(C)(C)C(=O)O)c2csc(N)n2)C(=O)N1S(=O)(=O)O [Aztreonam]	0.941
O=C(CCc1ccc(O)cc1)c1c(O)cc(O)cc1O[C@@H]1O[C@H](CO)[C@@H](O)[C@H](O)[C@H]1O [Phloridzin]	1.25
CC(C)(C)n1nc(-c2ccc(Cl)cc2)c2c(N)ncnc21	1.07
Cc1c(Cc2ccc3ccccc3n2)c2cc(F)ccc2n1CC(=O)O	1.06
COc1cccc2cc(-c3nc([C@H]4CC[C@H](C(=O)O)CC4)n4ncnc(N)c34)[nH]c12	0.817
CN/C(=C\[N+](=O)[O-])NCCSCc1ccc(CN(C)C)o1 [Ranitidine]	1.06
COc1ccc(CN2CCN(C(c3ccc(F)cc3)c3ccc(F)cc3)CC2)c(OC)c1OC [Lomerizine, Lomerizine Dihydrochloride]	0.985
COc1c(C)c(C(=O)c2ccc(N)c(C(=O)O)c2)n2ccccc12	1.07
CC(=O)Nc1ccccc1 [Acetanilide]	1.04
CN1CCC[C@@H]1CCO[C@](C)(c1ccccc1)c1ccc(Cl)cc1 [Clemastine, Clemastine Fumarate]	0.976
NC(=S)N/N=C/c1ncccc1N [Triapine]	0.898

Random excerpt: five entries already listed, in no set order.
SMILES	GFP-
CNC[C@H](O)c1ccc(O)c(O)c1 [Epinephrine]	0.967 and 1.03 and 1.07
CN(C)Cc1ccc(-c2nc3cccc4c3n2CCNC4=O)cc1	0.796 ± 0.034
CC(C)(C)n1nc(-c2ccc(Cl)cc2)c2c(N)ncnc21	1.07
CN1CCC[C@@H]1CCO[C@](C)(c1ccccc1)c1ccc(Cl)cc1 [Clemastine, Clemastine Fumarate]	0.976
CCCCNc1ncc(-c2ccc(CN3CCOCC3)cn2)c(N[C@H]2CC[C@H](O)CC2)n1	0.929
